Laboratory results published in PubChem BioAssay AID493014 (National Center for Advancing Translational Sciences (NCATS), 2011).
The other results are listed elsewhere or left out. These are further read-outs of the screen, such as a control signal, another cell line or another target. No call is given for them. Compounds called inactive in the main read-out are mostly missing here. Potencies come from curve fits of mixed quality, noted in brackets.

Assay: qHTS Assay to Find Inhibitors of Chronic Active B-Cell Receptor Signaling
Conditions: ABC-DLBCL IkBa-CBG/CBR reporter, luminescence ratio (green luciferase fused to IkBa over red control in TMD8 lymphoma cells), 4 h
Summary of the method: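 Concentration-response series (up to 46 uM) were applied to TMD8 dual-reporter cells for 4 h at 37C with doxycycline. Green/red ratio, after filter-overlap correction, defined %Activity; red signal alone was normalised to basal cells and zero luminescence.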

[1] = measured here: CBR red luminescence, cell number
[2] = measured here: IkBa-CBG green luminescence

Row | SMILES | AC50 [1] | AC50 [2]
1 | O=C(NCCOc1ccccc1Cl)c1ncn[nH]1 | 7.08 µM [rising, full curve] | 
2 | Cc1cc(NCCCN2CCOCC2)n2nc(C)c(-c3ccc(F)cc3)c2n1 | 20 µM [falling, single point] | 
3 | Cc1cc(C)c(C#N)c(Sc2ccccc2N)n1 | 12.6 µM [rising, single point] | 
4 | CC(OC(=O)CCN1C(=O)C2CC=CCC2C1=O)C(=O)c1ccc(F)cc1 (centres undefined) | 29.1 µM [rising, single point] | 
5 | Cc1c(C(=O)NC(Cc2ccccc2)c2nc3ccccc3[nH]2)cccc1[N+](=O)[O-] (centres undefined) | 29.1 µM [falling, single point] | 
6 | CCOc1ccccc1OCCC(=O)Nc1ccc2c(c1)OCO2 |  | 5.17 µM [falling, partial curve, poor fit]
7 | O=c1oc2ccccc2cc1NCc1ccccc1O | 13 µM [falling, partial curve] | 
8 | O=C1NC(=S)N/C1=C/c1ccc2ccccc2c1 | 0.398 µM [rising, full curve] | 
9 | COc1cc(C(=O)NNC(=O)C2CC=CCC2C(=O)O)cc(OC)c1OC (centres undefined) | 5.17 µM [rising, full curve] | 11.6 µM [falling, partial curve]
10 | O=C(NCC1CCCO1)c1cc(-c2ccccc2)on1 (centres undefined) | 8.2 µM [falling, partial curve] | 
11 | CCOC(=O)N1CCC(NC(=O)CC(NS(=O)(=O)c2ccc(Cl)cc2)c2ccco2)CC1 (centres undefined) | 0.731 µM [falling, partial curve, poor fit] | 
12 | Cc1ccc(NC(=O)Cn2cc(C(=O)c3ccco3)c3ccccc32)c(C)c1 | 6.31 µM [rising, single point] | 
13 | O=C(O)c1ccc(C(=O)Nc2ccc(F)cc2)cc1 | 14.6 µM [falling, partial curve] | 
14 | O=C(Nc1cccc(Cl)c1)c1cc(S(=O)(=O)N2CCCc3ccccc32)ccc1F | 3.98 µM [falling, full curve, poor fit] | 
15 | COc1ccc(C2c3c(ncn(CCN4CCOCC4)c3=N)Oc3ccc4ccccc4c32)cc1 (centres undefined) | 1.64 µM [falling, partial curve, poor fit] | 
16 | O=C(CSc1ccccc1C(=O)O)c1ccc(Cl)cc1 | 3.16 µM [rising, partial curve, poor fit] | 
17 | COc1ccc(CCn2c(N)c(S(=O)(=O)c3cccs3)c3nc4ccccc4nc32)cc1OC | 11.2 µM [falling, partial curve] | 
18 | C=CCS(=O)(=O)N1CCCC(C(=O)c2cccc(Cl)c2)C1 (centres undefined) | 11.2 µM [rising, partial curve, poor fit] | 
19 | COC(=O)c1ccc(C23CC4(C2)[C@H](CN(Cc2ccc(-c5ccccc5)cc2)[C@@H]4c2ccccc2)C3c2ccc(Cl)nc2)cc1 (some centres undefined) | 4.47 µM [rising, single point] | 
20 | O=C(O)Cn1c(=O)c2c3c(sc2n(Cc2ccc(F)cc2)c1=O)CCCC3 | 0.1 µM [rising, full curve, poor fit] | 
21 | CC(C)NS(=O)(=O)c1ccc(NC(=O)CCc2ccccc2)cc1 | 29.1 µM [rising, single point] | 

Some of the entries above in a different format:
O=C(O)c1ccc(C(=O)Nc2ccc(F)cc2)cc1
  AC50 [1]: 14.6 µM [falling, partial curve]
O=C(O)Cn1c(=O)c2c3c(sc2n(Cc2ccc(F)cc2)c1=O)CCCC3
  AC50 [1]: 0.1 µM [rising, full curve, poor fit]

Additional compounds

Row | SMILES | AC50 [1] | AC50 [2]
22 | COc1cc2c(cc1OC)C(c1ccccc1N)=NCC2 | 0.708 µM [falling, partial curve, poor fit] | 
23 | COc1ccc(NC(=S)Nc2ccc(C)c(Cl)c2)cc1OC | 15.8 µM [rising, single point] | 
24 | Cc1ccc(NC(=O)N2CCC(C(=O)NCc3ccccc3)CC2)cc1 | 16.4 µM [rising, partial curve, poor fit] | 
25 | Cc1cccc(Cl)c1NC(=O)N1CCCN(c2nc3ccc(Cl)cc3s2)CC1 | 35.5 µM [falling, single point] | 
26 | COCC(=O)n1nc(-c2ccccc2)nc1NCc1ccccc1 | 11.2 µM [falling, single point] | 
27 | Cc1ccc(Cl)cc1-n1ncc2c(NCCC3=CCCCC3)ncnc21 | 25.1 µM [falling, single point] | 
28 | CCn1c(C)cc(/C=C2/NC(=O)N(CC(=O)Nc3cccc(C)c3)C2=O)c1C | 1.64 µM [rising, full curve, poor fit] | 
29 | C=CCOc1ccc(/C=C2\SC(N)=NC2=O)cc1OC |  | 14.1 µM [falling, partial curve, poor fit]
30 | COc1ccc2c(CC(=O)OCc3nc4ccsc4c(=O)[nH]3)coc2c1 | 29.1 µM [rising, single point] | 
31 | Cc1cc(C)n(-c2nc(C)nc3c2cnn3-c2ccccc2)n1 | 23.1 µM [rising, single point] | 
32 | COc1ccc(Nc2nnc(-c3ccc(C(=O)NCCO)cc3)c3ccccc23)cc1 | 31.6 µM [falling, single point] | 
33 | CC(=O)NC(CC(=O)OCC(=O)c1cc(C)ccc1C)c1ccccc1 (centres undefined) | 0.146 µM [rising, partial curve, poor fit] | 
34 | O=C(CSc1nnc(SCc2ccccc2Cl)s1)N/N=C/c1ccc(C(=O)O)cc1 | 35.5 µM [falling, single point] | 
35 | CCc1nn(-c2ccccc2)c(=S)c2ccccc12 | 11.2 µM [rising, partial curve] | 
36 | Cc1nnc(SCC(=O)Nc2nccs2)o1 |  | 35.5 µM [falling, single point]
37 | O=c1oc(-c2ccccc2)nc2sc3c(c12)CCCC3 | 2.31 µM [falling, full curve] | 
38 | O=C(CCN1CCCCO1)N1CCCC(Nc2ccc(F)c(F)c2)C1 (centres undefined) | 2.51 µM [rising, partial curve, poor fit] | 
39 | CCOC(=O)CSc1nnc(-c2cccc(Br)c2)o1 | 22.4 µM [falling, single point] | 
40 | CC(C(=O)Nc1nc2ccccc2s1)n1cc([N+](=O)[O-])cn1 (centres undefined) | 2.51 µM [rising, partial curve] | 35.5 µM [rising, partial curve, poor fit]
41 | CNC(=S)NNC(=O)c1sccc1C | 4.61 µM [falling, partial curve] | 
42 | COc1cccc(/C=C/c2ccccn2)c1O | 35.5 µM [falling, single point] | 
